Source: patent US20250012802A1, “SYSTEMS AND METHODS FOR PREDICTING RESPONSE TO ORAL MINOXIDIL FOR THE TREATMENT OF ANDROGENETIC ALOPECIA” (Follea International, priority 2023, published 2025)
Values joined by “and” are separate entries in the source; they are usually repeats but may differ in a detail not shown here. Equal entries are not always repeated. At least one compound was matched to its structure with a doubt left.

By UniProt entry, the sequences of proteins in these tests, tags left out. Where a name states a change or a piece, a line headed by the entry shows the natural chain unless it says otherwise.
UniProt P50225: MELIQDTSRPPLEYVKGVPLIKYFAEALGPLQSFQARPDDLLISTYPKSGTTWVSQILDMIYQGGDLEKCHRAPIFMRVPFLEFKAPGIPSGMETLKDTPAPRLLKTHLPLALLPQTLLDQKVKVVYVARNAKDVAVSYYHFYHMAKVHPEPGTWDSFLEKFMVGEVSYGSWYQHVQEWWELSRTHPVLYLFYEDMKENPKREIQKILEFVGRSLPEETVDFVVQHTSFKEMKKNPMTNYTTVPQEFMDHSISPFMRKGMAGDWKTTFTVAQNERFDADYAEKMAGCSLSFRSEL

Molecular target: T1, minoxidil sulfotransferase (SULT1A1) (Homo sapiens, UniProt P50225)
T1 construct: A patient's hair follicle sample (from 1 ton hair follicles) may be placed in a reaction mixture; from tissue; host or cells: plucked hair follicles of human patients with androgenetic alopecia
Assay: colorimetric assay of minoxidil sulfotransferase activity in plucked hair follicles
Format: biochemical
Conditions: patient hair follicle in solution containing minoxidil; colorimetric readout, absorbance at about 405 nm; one table line per patient

## Nc1cc(N2CCCCC2)nc(N)[n+]1[O-] [minoxidil]
  Optical Density (OD): 0.769 and 0.695 and 0.604 and 0.599 and 0.574 and 0.518 and 0.449 and 0.443 and 0.411 and 0.373 and 0.371 and 0.356 and 0.35 and 0.344 and 0.253 and 0.187 and 0.179 and 0.178 and 0.149 and 0.11 and 0.07 and 1.656 and 1.465 and 1.416 and 0.891 and 0.871
